Results as given in publication PMC6509835.
No constants are given. Whether binding was seen depends on the method and setting. Binding seen in cells or lysates may run through a third protein. Some results given as binding are weak or reduced against the parent protein; the word gives no strength.

By UniProt entry, the sequences of proteins in these tests, tags left out.
UniProt P49841: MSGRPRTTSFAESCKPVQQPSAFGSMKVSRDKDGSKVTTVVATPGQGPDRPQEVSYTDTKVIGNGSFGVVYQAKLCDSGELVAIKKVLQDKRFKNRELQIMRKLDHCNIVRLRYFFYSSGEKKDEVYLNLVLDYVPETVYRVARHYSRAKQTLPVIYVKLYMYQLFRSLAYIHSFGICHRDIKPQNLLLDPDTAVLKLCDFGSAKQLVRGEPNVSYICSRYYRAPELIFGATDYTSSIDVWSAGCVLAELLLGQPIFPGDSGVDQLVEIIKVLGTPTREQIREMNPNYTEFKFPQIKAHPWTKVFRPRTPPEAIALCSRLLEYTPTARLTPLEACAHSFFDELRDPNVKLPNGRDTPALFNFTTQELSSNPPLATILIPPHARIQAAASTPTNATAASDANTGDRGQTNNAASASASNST
UniProt Q07812: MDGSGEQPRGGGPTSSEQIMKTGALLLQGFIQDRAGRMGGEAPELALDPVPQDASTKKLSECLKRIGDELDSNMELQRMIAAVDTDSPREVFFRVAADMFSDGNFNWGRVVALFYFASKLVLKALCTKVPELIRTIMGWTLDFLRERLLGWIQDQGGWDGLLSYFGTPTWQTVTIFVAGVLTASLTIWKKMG

Columns and labels:
[1] = biological target: Glycogen synthase kinase-3β (human (endogenous in human colon cancer cells)) (UniProt P49841); assay: co-IP; endogenous proteins; GSK-3β or Bax antibody added to cell lysates, 2 h at ambient temperature, captured on protein A-agarose, Western blotting for GSK-3β or Bax; cells with or without 2 μg/ml SC66 treatment
[2] = biological target: Bcl-2-associated X protein (human (endogenous in human colon cancer cells)) (UniProt Q07812); assay: as above

Bcl-2-associated X protein (from UniProt Q07812 1-192)
binding [1]: binds

Glycogen synthase kinase-3β (from UniProt P49841 1-420)
binding [2]: binds
